Assay results published in US20250326851A1.
These are yes or no findings as the source states them, for the method shown. Some results given as binding are weak or reduced against the parent protein; the word gives no strength.

The chains behind the UniProt entries cited, without tags or fusion partners. Where a name states a change or a piece, a line headed by the entry shows the natural chain unless it says otherwise. A line that says so, or that is headed by a name, gives the form on record, which may keep a tag or linker. Residues count along the entry.
Cynomolgus monkey CCR8 (G7NYJ2, form named): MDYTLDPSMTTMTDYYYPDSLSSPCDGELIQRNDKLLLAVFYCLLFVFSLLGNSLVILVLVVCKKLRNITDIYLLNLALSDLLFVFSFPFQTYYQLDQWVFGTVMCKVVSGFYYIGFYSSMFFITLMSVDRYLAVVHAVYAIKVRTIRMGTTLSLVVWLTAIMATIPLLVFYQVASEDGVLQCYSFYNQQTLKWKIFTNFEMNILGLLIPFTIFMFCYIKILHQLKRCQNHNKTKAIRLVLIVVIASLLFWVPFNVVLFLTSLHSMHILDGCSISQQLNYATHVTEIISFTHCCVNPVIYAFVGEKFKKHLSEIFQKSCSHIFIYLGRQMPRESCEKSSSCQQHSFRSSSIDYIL
UniProt P51685, residues 1-35: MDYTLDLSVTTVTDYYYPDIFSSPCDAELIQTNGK

How the values were obtained:
[1] = target: Cynomolgus monkey CCR8 (Cynomolgus monkey) (UniProt G7NYJ2); experiment: method not named
[2] = target: human CCR8 N-terminal peptides and fusion proteins (human) (UniProt P51685); experiment: SPR; CCR8 N-terminal peptides and fusion proteins, 1.56 to 200 nM
[3] = target: Cynomolgus monkey CCR8 (Cynomolgus monkey) (UniProt G7NYJ2); experiment: flow cytometry and immunofluorescence on cells, 0.0032 to 50 µg/mL
[4] = target: Cynomolgus monkey CCR8 (Cynomolgus monkey) (UniProt G7NYJ2); experiment: immunohistochemistry on CCR8-positive and negative cells

Row | Binder | binding [1] | binding [2] | binding [3] | binding [4]
1 | TPP-23411 (afucosylated) (antibody, human IgG1, lambda, V domains shown, afucosylated Fc glycan) VH: EVQLLESGGGLVQPGGSLRLSCAASGFTFSSYGMHWVRQAPGKGLEWVSAINWNGGSTGYADSVKGRFTISRDNSKNTLYLQMNSLRAEDTAVYYCARGHHSGYDGRFFDYWGQGTLVTVSS VL: QSVLTQPPSVSGAPGQRVTISCTGSSSNIGAGYNVHWYQQLPGTAPKLLIYTNNRRPSGVPDRFSGSKSGTSASLAISGLRSEDEADYYCAAWDASLSGWVFGGGTKLTVLG | binds | binds | binds | –
2 | TPP-23411-FITC (antibody, V domains shown, FITC-conjugated (sites not given)) VH: EVQLLESGGGLVQPGGSLRLSCAASGFTFSSYGMHWVRQAPGKGLEWVSAINWNGGSTGYADSVKGRFTISRDNSKNTLYLQMNSLRAEDTAVYYCARGHHSGYDGRFFDYWGQGTLVTVSS VL: QSVLTQPPSVSGAPGQRVTISCTGSSSNIGAGYNVHWYQQLPGTAPKLLIYTNNRRPSGVPDRFSGSKSGTSASLAISGLRSEDEADYYCAAWDASLSGWVFGGGTKLTVLG | – | – | – | binds
